The target in the assay is GFP-Hakai-S (short isoform) (Drosophila). The assay can be described thus: co-IP; myc-GFP, GFP-Hakai or GFP-Hakai-S transfected into S2 cells; lysate precipitated with anti-GFP nanobody agarose beads; endogenous Fl(2)d detected by western blot with anti-Fl(2)d (9G2). For orientation: In western blotting, separated proteins are transferred to a membrane and probed.

The values below come from article PMC8041851.

Results are given in words; binding and its absence hold for the method and conditions named. In cells and extracts the contact can be indirect. Binding can be weak; no strength is given.

B1: endogenous Fl(2)d protein (protein, UniProt Q9Y091 1-536)
chain: MSVAAMTMDDQRPCMNSYDKMPPTKYEQNLNILNSSQNSGATGGPASPTPSGLEDHHHHHHPHPHHHHHQEQQQQQQQQQHLQQQQQQQQQQHAAAVAEAVAAAEQRQRLLEDEIENLKLEQVRMAQQCADAQRREKILMRRLANKEQEFQDYVSQIAEYKAQQAPTALALRTALLDPAVNLLFERLKKELKATKAKLEETQNELSAWKFTPDSNTGKRLMAKCRLLYQENEELGKMTSNGRLAKLETELAMQKSFSEEVKKSQSELDDFLQELDEDVEGMQSTILFLQQELKTTRDRIQTLEKENAQLKQAIKDEVVAPAAATNGGTNTTINKLETIHEDACMANNPTNPDCYNGNTNNEQIAAVPQIPLSDDGSNMNGNAARLARKRNYQEEEALPTVVVVPTPTPVGNNVQEAPPIREVTAPRTLPPKKSKLRGITTRRNSQLEEDHQPVTTPVAVPMIVDNAVAGMASEEAAAAAAAVNNSNTGIIPETGVQVGVPVEGGDPGAPAAPGRILTRRRSVRMQQNGSGAVDYST
On to B1, for which the binding result is “binds”.
